# Results are given in words; binding and its absence hold for the method and conditions named.
# Biological target: T1, N-term biotinylated candidalysin (Candida albicans)
# T1 sequence (peptide, biotin on the N-terminus): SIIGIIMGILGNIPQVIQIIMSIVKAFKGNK
# Test: condition: 500 nM (250-2000 nM injected; unspecific binding at injections >500 nM due to protein aggregation); SPR; Biacore T100; N-term biotinylated candidalysin captured (up to 1000 RU) on neutravidin coupled to a CM5 chip, free sites blocked with PEG-biotin; EGFR domains injected at 250, 500, 1000 and 2000 nM at 10 µL/min; HBS-EP buffer (10 mM HEPES pH 7.4, 150 mM NaCl, 3 mM EDTA, 0.005% Surfactant P20); 25 °C; neutravidin-only reference cell; both purified
row,Substance,binding
1,EGFR cytoplasmic domain (from UniProt P00533 669-1210) (domain or fragment),no binding
2,EGFR extracellular domain (from UniProt P00533 25-645) (domain or fragment),no binding

# Reference: PMC6534540
